# Measured values published in PMC3573115.
# Construct, isoform or probe ends are uncertain for at least one entry. For some assays here: No signal at the amounts used counts as a negative. Where a protein sequence is shown, tags need not be part of it.
# Columns and labels:
# [1] = molecular target: T1, Har-Rel-D (mature Har-Relish) (Helicoverpa armigera) (UniProt G3LF45); assay: competition with a labelled probe; settings: 100-fold excess unlabeled nS against labeled LP1; 10 mM Hepes-K+ pH 7.9, 10% glycerol, 50 mM KCl, 4 mM MgCl2, 1 mM DTT, 0.5 mg/ml BSA, 0.1 mM PMSF, 1 ug poly(dI/dC), 27 C 30 min; 5% native PAGE in 1x TBE; protein translated in vitro; residues 1-509; label: unlabeled
# T1 sequence (looked up): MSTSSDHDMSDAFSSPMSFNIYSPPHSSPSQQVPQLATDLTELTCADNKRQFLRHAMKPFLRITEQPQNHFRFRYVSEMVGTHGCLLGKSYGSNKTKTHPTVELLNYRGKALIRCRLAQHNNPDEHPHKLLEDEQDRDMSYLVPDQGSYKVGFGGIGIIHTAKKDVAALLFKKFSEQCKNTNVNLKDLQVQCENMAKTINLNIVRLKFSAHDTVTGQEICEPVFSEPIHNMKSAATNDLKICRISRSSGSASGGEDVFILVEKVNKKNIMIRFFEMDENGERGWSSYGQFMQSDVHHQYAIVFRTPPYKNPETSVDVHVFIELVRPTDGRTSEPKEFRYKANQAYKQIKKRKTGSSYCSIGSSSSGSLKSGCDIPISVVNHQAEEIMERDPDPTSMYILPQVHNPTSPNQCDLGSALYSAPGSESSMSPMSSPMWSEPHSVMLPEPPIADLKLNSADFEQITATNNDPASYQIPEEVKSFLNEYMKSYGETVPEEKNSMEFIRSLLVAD
# [2] = molecular target: T1, Har-Rel-D (mature Har-Relish) (Helicoverpa armigera); assay: EMSA; settings: reduced by 100-fold excess unlabeled LP1; 10 mM Hepes-K+ pH 7.9, 10% glycerol, 50 mM KCl, 4 mM MgCl2, 1 mM DTT, 0.5 mg/ml BSA, 0.1 mM PMSF, 1 ug poly(dI/dC), 27 C 30 min; 5% native PAGE in 1x TBE; protein translated in vitro; residues 1-509; label: 32P (Klenow fill-in with [alpha-32P]dATP)
Sequence,binding result [1],binding result [2]
TTAAGATTATTTACGCAACCGCATTGCAAAATAAAAC (double strand) [nS],no binding,–
TTTGGGGGGAATCCCCCCCATCTGGCATCACTGAATA (double strand) [LP1],–,binds
